The assay addresses T1, MPL-ECD-GGSG-Nluc-AcV5 (human).
T1 construct: the entry includes the native signal peptide; also called MPL-GGSG-NLuc-AcV5; MPL-GGSG-NLuc AcV5
T1 chain: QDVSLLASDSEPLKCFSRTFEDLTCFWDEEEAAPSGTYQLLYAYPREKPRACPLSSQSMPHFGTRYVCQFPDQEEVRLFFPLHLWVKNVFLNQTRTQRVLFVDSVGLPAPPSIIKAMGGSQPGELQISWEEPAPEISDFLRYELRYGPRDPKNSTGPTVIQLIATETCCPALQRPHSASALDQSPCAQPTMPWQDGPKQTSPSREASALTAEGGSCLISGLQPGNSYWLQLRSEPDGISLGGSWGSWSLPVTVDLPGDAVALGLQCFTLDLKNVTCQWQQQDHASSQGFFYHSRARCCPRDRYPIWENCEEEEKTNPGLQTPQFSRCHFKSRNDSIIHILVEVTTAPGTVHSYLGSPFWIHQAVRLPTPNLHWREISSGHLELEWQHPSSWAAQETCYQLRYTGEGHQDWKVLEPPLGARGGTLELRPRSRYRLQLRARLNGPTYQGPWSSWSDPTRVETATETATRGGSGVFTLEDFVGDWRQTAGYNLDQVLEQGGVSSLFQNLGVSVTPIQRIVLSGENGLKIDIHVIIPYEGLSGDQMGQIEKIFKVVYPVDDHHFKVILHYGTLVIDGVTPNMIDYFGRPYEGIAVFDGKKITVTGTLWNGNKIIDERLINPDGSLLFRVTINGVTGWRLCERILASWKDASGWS
As to the kind of experiment: NLuc assay: CAR on transfected 293FT cells incubated with MPL-ECD-GGSG-NLuc-AcV5 supernatant.

B1: CD8SP-FMC63-(vL-vH)-Myc-BBz-T2A-PAC(112014-A13) (scFv)
chain: DIQMTQTTSSLSASLGDRVTISCRASQDISKYLNWYQQKPDGTVKLLIYHTSRLHSGVPSRFSGSGSGTDYSLTISNLEQEDIATYFCQQGNTLPYTFGGGTKLEITGGGGSGGGGSGGGGSEVKLQESGPGLVAPSQSLSVTCTVSGVSLPDYGVSWIRQPPRKGLEWLGVIWGSETTYYNSALKSRLTIIKDNSKSQVFLKMNSLQTDDTAIYYCAKHYYYGGSYAMDYWGQGTSVTVSSRVEQKLISEEDLAKPTTTPAPRPPTPAPTIASQPLSLRPEACRPAAGGAVHTRGLDFACDIYIWAPLAGTCGVLLLSLVITLYCKRGRKKLLYIFKQPFMRPVQTTQEEDGCSCRFPEEEEGGCELRVKFSRSADAPAYQQGQNQLYNELNLGRREEYDVLDKRRGRDPEMGGKPRRKNPQEGLYNELQKDKMAEAYSEIGMKGERRRGKGHDGLYQGLSTATKDTYDALHMQALPPRSSGSGEGRGSLLTCGDVEENPG
notes: the entry is the whole encoded polyprotein (CD8 signal peptide, scFv, Myc, CD8 hinge/TM, 41BB, CD3z, T2A, PAC)
As for B1, the binding result is “no binding”.

The values are drawn from patent publication US20240166755A1 (UNIVERSITY OF SOUTHERN CALIFORNIA, published 2024).
